Measured values reported in PMC9856275.
No constants are given. Whether binding was seen depends on the method and setting. Binding seen in cells or lysates may run through a third protein. Some entries that bind do so weakly or less than the wild type.

By UniProt entry, the sequences of proteins in these tests, tags left out.
UniProt P45973: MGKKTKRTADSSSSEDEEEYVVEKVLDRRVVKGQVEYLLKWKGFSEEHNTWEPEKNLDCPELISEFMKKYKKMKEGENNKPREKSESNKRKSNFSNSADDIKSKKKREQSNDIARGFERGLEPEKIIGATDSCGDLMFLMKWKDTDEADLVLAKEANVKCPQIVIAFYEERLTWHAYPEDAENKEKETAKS
UniProt Q7Z4V5: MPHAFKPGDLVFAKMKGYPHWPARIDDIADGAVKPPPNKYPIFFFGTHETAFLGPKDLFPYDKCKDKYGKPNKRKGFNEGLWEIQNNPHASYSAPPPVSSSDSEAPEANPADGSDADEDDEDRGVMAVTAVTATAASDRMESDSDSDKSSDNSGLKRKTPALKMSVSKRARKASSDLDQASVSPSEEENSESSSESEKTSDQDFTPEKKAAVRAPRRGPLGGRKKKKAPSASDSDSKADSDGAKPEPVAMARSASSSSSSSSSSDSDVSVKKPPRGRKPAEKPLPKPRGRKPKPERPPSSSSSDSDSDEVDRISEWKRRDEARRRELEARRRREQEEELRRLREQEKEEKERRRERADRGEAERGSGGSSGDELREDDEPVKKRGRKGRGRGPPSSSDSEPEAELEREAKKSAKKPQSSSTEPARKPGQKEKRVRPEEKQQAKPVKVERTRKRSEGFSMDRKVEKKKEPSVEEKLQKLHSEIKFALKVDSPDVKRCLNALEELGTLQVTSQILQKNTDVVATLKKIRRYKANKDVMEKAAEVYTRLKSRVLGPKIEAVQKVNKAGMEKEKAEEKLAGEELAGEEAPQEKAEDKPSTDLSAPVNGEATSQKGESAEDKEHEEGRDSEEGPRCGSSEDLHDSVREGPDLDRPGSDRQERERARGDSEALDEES
UniProt Q9UK61: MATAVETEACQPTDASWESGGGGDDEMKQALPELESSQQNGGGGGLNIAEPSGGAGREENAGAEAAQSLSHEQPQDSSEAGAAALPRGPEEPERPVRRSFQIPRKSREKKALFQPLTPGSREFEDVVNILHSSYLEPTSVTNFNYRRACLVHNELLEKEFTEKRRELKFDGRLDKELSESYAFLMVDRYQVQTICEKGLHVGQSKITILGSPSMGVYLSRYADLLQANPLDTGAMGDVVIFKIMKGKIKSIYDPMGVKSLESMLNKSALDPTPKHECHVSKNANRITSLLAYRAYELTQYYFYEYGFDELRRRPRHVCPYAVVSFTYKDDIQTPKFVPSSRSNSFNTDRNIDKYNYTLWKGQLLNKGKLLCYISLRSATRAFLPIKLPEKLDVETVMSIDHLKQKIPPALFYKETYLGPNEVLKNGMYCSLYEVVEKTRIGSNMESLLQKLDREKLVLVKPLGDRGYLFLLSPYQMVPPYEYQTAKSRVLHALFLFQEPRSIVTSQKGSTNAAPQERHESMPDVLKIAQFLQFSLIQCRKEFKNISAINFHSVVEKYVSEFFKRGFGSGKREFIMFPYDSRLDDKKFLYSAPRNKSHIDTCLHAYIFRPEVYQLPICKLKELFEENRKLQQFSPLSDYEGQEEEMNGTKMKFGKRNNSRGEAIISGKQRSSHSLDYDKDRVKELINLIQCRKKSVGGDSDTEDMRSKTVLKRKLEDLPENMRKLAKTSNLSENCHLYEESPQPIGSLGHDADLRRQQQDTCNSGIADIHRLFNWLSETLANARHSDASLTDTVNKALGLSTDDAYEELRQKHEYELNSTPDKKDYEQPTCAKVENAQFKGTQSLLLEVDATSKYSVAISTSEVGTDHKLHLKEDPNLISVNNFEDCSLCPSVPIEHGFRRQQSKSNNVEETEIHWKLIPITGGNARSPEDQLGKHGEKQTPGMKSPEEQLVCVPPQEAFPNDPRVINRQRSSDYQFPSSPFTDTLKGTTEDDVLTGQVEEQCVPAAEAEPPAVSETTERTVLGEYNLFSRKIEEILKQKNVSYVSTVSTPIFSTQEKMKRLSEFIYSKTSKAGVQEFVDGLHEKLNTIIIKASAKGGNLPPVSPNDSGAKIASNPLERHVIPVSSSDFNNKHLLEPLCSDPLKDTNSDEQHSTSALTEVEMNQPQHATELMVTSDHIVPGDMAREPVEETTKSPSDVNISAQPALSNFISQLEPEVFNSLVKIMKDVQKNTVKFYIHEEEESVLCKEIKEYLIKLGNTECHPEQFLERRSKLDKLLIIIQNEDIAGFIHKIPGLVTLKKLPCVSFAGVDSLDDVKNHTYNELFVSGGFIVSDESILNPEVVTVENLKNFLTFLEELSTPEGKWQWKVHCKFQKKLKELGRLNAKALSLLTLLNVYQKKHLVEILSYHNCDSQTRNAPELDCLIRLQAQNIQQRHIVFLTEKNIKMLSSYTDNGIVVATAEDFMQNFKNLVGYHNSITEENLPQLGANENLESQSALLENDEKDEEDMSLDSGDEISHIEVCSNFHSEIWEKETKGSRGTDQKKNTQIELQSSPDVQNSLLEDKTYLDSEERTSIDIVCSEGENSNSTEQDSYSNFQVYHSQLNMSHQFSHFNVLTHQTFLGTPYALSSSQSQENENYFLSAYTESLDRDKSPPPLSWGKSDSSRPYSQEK
UniProt P04406: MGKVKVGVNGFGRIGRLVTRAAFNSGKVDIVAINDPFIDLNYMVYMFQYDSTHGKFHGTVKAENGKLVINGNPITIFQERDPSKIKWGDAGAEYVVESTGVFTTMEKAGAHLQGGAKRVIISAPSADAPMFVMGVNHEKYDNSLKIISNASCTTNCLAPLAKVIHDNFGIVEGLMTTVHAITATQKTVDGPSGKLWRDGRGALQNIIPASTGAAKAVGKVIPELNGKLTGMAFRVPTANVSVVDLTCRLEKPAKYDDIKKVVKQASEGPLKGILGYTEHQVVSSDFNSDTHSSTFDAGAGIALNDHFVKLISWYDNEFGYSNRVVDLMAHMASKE
UniProt Q99549: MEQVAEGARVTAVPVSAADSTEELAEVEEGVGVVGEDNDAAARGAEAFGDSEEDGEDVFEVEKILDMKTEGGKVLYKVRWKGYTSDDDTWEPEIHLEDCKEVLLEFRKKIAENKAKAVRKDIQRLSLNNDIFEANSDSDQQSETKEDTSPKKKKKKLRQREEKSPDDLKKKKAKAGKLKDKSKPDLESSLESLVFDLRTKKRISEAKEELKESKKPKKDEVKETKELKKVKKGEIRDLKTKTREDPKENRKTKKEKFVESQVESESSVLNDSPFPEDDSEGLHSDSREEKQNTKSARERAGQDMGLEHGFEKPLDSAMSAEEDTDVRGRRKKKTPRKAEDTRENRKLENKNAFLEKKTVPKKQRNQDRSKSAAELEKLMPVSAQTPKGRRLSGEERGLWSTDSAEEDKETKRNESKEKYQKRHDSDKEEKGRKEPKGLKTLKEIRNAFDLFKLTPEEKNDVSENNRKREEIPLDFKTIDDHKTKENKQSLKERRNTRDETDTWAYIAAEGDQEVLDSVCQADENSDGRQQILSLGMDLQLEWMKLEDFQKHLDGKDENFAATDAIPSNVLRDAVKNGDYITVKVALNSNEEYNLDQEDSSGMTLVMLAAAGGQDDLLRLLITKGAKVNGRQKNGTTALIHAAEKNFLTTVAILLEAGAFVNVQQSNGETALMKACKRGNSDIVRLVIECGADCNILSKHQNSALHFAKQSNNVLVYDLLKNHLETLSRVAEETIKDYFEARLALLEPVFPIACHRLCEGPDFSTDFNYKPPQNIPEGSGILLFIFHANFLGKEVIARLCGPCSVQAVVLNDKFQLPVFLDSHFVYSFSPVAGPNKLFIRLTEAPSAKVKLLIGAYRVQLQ

Key:
[1] = molecular target: heterochromatin protein 1 alpha (human (endogenous in HEK 293T)) (UniProt P45973); assay: co-IP; α-HP1α on Protein G Dynabeads; whole-cell lysates of HRP2 wild-type and HRP2 knockout 293T cells; immunoblot
[2] = molecular target: hepatoma-derived growth factor-related protein 2 (human (endogenous in HEK 293T)) (UniProt Q7Z4V5); assay: co-IP; endogenous proteins of HEK 293T whole-cell lysate (M-PER, benzonase-treated); IP antibody on Protein G Dynabeads; 500 mM NaCl; immunoblot
[3] = molecular target: hepatoma-derived growth factor-related protein 2 (human (endogenous in HEK 293T)) (UniProt Q7Z4V5); assay: co-IP; endogenous proteins of HEK 293T whole-cell lysate (M-PER, benzonase-treated); IP antibody on Protein G Dynabeads, 4 °C overnight; 150 mM NaCl; immunoblot
[4] = molecular target: hepatoma-derived growth factor-related protein 2 (human (endogenous in HEK 293T)) (UniProt Q7Z4V5); assay: co-sedimentation; 5–20% sucrose density gradient ultracentrifugation (250,000 x g, 16 h, 4 °C) of 1.3 mg nuclear extract of HRP2 wild-type or HRP2 knockout 293T cells; 21 fractions of 500 μL analysed by immunoblot

Substance | binding [1] | binding [2] | binding [3] | binding [4]
TASOR (from UniProt Q9UK61 1-1670) | binds |  |  | 
heterochromatin protein 1 alpha (from UniProt P45973 1-191) |  | binds | binds | binds
GAPDH (from UniProt P04406 1-335) |  | no binding | no binding | 
M-phase phosphoprotein 8 (from UniProt Q99549 1-860) | binds | binds | binds | binds
